Measurements: patent publication US20230026969A1, “Oligopeptide, Testing Kit Thereof And Medical Composition Thereof” (China Medical University, priority 2019, published 2023)
No constants are given. Whether binding was seen depends on the method and setting. For some of these results: Binding can be weak; no strength is given.

Protein sequences, listed by entry. Tags and fused reporters are not part of them. Lines headed by an entry give the natural chain unless they say otherwise; changes in a name come on top.
UniProt P12111: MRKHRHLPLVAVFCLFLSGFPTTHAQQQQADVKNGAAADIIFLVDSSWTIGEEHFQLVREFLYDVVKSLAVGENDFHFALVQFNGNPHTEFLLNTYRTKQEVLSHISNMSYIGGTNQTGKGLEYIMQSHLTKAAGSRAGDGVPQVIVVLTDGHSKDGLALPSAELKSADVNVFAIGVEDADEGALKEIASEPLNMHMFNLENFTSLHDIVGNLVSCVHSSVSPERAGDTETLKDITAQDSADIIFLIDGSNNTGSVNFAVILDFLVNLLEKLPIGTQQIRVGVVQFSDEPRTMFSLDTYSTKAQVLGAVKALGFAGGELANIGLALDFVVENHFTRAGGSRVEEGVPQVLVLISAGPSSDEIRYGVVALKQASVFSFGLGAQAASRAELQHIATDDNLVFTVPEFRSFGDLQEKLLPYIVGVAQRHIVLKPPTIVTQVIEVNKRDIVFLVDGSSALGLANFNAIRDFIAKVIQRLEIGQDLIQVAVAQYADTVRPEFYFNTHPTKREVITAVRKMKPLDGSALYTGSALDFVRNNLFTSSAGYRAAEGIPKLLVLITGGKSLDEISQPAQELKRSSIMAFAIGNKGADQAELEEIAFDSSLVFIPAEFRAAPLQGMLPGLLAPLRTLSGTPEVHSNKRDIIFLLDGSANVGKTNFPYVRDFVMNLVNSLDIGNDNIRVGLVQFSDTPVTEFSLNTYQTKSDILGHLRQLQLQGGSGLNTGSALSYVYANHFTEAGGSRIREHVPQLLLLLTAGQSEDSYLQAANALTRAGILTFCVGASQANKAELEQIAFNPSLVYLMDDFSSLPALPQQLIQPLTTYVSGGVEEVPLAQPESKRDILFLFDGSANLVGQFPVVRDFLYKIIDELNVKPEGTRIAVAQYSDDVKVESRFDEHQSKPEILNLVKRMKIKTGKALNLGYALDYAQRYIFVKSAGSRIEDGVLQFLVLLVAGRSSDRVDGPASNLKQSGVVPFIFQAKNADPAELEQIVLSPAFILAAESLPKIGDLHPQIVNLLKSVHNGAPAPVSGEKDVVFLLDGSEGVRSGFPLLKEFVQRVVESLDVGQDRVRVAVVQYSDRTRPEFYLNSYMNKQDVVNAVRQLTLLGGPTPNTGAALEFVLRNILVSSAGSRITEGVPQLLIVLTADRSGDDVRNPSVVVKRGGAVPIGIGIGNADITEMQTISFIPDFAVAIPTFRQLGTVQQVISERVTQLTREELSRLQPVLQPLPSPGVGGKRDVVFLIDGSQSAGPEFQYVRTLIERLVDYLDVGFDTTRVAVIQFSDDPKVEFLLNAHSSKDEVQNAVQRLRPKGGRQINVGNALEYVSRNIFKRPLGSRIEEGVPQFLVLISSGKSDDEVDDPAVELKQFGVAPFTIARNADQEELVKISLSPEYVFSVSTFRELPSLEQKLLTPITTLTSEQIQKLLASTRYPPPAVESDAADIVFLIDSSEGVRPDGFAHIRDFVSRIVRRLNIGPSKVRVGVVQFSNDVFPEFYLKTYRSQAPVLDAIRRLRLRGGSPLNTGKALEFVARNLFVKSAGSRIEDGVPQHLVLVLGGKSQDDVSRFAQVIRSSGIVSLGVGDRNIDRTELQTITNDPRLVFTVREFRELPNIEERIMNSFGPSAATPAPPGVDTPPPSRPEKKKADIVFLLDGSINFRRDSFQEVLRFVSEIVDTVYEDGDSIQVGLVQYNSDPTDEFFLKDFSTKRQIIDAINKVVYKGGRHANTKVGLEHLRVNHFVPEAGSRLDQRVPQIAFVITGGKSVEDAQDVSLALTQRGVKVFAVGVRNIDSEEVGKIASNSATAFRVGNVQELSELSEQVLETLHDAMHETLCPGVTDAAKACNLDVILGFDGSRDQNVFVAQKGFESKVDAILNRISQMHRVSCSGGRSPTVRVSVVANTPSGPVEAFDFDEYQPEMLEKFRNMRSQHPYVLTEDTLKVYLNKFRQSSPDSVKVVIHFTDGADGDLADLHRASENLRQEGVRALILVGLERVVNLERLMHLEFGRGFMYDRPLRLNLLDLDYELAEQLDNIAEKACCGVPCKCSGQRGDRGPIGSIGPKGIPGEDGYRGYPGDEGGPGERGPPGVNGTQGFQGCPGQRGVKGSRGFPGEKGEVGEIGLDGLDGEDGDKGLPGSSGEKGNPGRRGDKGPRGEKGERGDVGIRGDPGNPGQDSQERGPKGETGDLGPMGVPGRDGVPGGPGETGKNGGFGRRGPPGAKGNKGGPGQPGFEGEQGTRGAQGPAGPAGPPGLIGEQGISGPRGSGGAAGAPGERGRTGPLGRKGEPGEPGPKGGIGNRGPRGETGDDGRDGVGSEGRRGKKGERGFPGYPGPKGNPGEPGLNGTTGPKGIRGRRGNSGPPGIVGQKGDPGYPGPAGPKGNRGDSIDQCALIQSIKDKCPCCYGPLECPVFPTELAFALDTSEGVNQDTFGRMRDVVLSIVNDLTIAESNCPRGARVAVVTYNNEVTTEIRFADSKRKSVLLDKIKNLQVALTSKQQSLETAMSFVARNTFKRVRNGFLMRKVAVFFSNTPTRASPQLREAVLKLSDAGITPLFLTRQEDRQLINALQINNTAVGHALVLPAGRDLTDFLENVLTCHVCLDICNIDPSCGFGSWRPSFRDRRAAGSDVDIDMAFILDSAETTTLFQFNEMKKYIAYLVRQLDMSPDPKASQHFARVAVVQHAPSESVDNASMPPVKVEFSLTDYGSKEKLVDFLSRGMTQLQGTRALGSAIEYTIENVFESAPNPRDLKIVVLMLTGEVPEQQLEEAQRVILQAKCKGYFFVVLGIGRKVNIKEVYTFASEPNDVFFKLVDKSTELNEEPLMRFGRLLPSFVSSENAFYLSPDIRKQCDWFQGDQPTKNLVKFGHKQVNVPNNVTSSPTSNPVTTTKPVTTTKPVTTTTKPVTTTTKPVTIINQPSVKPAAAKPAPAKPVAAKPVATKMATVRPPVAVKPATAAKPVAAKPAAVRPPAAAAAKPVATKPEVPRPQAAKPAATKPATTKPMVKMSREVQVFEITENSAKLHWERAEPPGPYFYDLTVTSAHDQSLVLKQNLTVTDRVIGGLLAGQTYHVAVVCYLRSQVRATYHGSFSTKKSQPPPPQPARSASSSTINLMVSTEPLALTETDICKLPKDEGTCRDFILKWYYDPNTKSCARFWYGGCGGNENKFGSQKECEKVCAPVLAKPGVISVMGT
UniProt Q99715: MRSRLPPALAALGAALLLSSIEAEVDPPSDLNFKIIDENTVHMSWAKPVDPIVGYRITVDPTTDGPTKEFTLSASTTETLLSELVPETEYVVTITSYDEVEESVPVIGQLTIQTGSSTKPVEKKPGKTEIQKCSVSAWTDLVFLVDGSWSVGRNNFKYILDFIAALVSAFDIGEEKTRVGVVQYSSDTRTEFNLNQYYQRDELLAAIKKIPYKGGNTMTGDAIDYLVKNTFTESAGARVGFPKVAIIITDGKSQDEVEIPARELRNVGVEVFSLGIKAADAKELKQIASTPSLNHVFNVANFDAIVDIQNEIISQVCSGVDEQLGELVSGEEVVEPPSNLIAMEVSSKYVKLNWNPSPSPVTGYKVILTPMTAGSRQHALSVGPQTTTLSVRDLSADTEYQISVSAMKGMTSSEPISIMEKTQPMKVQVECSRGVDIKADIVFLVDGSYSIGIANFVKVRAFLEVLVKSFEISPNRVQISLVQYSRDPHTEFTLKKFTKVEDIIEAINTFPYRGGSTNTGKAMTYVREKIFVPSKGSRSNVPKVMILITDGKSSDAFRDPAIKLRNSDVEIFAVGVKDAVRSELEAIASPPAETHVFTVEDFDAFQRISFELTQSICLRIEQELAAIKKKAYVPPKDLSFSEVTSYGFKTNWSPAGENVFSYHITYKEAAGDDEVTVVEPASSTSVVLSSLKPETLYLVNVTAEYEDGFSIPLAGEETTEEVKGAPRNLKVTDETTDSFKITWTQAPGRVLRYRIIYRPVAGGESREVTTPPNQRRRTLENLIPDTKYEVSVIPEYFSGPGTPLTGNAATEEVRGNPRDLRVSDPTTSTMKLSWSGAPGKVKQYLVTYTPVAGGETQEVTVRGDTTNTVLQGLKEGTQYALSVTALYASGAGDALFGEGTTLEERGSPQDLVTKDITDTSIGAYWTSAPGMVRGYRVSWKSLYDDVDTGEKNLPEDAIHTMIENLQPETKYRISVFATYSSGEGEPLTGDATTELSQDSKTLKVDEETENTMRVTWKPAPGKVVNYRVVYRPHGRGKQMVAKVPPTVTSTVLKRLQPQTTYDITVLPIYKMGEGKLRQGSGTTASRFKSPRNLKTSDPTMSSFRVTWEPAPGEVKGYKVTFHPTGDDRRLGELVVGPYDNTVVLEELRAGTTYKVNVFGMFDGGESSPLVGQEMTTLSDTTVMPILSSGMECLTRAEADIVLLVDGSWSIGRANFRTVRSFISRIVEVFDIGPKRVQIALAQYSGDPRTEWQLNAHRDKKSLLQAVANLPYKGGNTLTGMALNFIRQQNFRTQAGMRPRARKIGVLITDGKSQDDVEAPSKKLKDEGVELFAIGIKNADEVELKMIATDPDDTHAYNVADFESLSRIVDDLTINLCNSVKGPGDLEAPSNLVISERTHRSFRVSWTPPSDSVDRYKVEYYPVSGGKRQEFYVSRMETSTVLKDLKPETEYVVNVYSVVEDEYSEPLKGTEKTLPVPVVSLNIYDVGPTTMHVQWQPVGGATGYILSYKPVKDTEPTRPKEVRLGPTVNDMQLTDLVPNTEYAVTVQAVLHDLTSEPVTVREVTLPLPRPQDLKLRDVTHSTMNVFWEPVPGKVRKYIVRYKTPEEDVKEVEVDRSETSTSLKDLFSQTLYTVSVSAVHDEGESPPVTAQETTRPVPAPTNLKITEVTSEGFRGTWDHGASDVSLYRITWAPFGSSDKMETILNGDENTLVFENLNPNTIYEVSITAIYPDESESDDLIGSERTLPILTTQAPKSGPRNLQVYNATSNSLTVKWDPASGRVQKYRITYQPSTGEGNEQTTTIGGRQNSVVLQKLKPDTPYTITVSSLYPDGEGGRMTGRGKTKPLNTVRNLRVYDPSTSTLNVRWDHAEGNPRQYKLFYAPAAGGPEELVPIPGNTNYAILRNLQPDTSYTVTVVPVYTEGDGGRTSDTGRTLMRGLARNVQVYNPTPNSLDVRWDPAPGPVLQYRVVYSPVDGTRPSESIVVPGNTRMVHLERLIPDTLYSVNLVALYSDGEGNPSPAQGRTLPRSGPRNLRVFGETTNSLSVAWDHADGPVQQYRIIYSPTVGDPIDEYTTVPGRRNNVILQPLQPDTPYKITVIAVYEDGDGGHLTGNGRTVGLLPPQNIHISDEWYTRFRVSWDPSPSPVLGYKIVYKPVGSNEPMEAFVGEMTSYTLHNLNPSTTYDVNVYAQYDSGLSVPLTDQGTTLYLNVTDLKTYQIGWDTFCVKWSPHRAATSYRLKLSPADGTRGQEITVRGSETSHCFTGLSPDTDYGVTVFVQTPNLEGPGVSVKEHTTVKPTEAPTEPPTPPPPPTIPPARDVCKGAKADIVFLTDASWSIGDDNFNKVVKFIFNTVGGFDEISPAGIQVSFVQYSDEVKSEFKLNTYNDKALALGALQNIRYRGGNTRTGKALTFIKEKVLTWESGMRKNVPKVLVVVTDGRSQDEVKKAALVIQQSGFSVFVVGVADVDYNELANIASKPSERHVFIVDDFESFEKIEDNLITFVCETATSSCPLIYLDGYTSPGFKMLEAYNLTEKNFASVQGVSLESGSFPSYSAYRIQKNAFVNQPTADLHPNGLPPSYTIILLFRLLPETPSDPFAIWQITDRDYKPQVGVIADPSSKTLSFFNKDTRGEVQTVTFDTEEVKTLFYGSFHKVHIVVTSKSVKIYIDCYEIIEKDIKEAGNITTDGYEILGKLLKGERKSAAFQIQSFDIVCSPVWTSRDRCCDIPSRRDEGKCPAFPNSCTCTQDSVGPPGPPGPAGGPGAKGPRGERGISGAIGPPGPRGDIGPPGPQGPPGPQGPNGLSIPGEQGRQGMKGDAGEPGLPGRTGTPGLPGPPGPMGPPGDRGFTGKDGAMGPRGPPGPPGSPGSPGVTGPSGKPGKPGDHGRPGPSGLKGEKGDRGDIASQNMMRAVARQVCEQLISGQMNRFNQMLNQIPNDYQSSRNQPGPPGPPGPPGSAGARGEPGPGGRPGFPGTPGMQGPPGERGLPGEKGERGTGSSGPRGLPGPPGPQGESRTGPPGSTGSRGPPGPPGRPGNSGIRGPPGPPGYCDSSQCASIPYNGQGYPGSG

Legend:
[1] = molecular target: collagen alpha-3 (VI) (human) (UniProt P12111); test: ELISA, collagen coated on plate, biotinylated peptide detected with HRP-streptavidin, A490. Binding was not mutually dose-dependent.
[2] = molecular target: collagen alpha-1 (XII) (human) (UniProt Q99715); test: ELISA, collagen coated on plate (collagen alpha-1 (XII) at 3.3 ug/mL for the peptide titration), biotinylated peptide detected with HRP-streptavidin, A490
[3] = molecular target: collagen alpha-3 (VI) (human) (UniProt P12111); test: ELISA, collagen coated on plate, biotinylated peptide detected with HRP-streptavidin
[4] = molecular target: collagen alpha-1 (XII) (human) (UniProt Q99715); test: as above

binding [1]	binding [2]	binding [3]	binding [4]	Binder
binds	binds	–	–	DLQYWYPIWDTH (biotinylated (site and linker not stated for the ELISA peptide)) [biotinylated C5-24 peptide]
–	–	no binding	no binding	DYLWQYPDITWH (biotinylated (site and linker not stated for the ELISA peptide)) [biotin-scrambled peptide]
